Some results were stated once for a whole list of compounds, not compound by compound.
Molecular target: T1, trehalose-6-phosphate phosphatase (Saccharomyces cerevisiae, UniProt P31688)
T1 construct: made in house; host or cells: Saccharomyces cerevisiae strain PVD45 (W303 background, tps1Δ::TRP1 tps2Δ::LEU2 + pSAL4/TPS2 URA3); crude cell extract desalted on Sephadex G25
T1 sequence (P31688 1-896): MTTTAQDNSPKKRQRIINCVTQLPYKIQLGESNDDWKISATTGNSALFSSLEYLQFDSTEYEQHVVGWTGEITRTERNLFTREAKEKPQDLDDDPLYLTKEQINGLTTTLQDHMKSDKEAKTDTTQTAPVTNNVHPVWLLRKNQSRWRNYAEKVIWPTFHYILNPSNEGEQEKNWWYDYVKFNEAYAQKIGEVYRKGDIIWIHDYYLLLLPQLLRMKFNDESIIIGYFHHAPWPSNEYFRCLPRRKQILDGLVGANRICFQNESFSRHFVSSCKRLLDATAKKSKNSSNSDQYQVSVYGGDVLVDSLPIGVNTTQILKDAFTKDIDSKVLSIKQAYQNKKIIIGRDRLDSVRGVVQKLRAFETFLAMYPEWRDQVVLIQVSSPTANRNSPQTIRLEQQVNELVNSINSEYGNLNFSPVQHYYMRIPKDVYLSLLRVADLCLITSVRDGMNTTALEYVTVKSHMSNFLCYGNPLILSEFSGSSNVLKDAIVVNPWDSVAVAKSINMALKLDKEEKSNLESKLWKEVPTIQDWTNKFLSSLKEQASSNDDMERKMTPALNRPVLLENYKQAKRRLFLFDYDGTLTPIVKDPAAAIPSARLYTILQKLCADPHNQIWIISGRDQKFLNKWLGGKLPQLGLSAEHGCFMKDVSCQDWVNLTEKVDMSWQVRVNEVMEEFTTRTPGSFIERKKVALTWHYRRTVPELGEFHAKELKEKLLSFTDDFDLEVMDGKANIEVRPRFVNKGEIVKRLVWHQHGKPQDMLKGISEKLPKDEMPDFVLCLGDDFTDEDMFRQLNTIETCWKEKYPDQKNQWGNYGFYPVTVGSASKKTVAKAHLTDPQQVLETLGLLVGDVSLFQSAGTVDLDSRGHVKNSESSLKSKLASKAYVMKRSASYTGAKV
Experiment: Screening assay for inhibition of TPP activity in extracts of strain PVD45 over-expressing TPS2
Type: biochemical
Conditions: extract of strain PVD45; final concentrations 35 mM, 3.5 mM, 0.35 mM, 35 µM; 30 min at 30°C; Figures 8 and 9

Compound: O=C(O)c1cc(SSc2ccc([N+](=O)[O-])c(C(=O)O)c2)ccc1[N+](=O)[O-] [DTNB, Dithiodinitrobenzoate]
- inhibition of trehalose-6-phosphate phosphatase activity: marked inhibition
